PubChem BioAssay AID652259 – Drosophila RNAi Screening Center | 2013

- Test: 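Knock-downs that push a Wingless-driven reporter up or down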 (primary screen)
- System: Drosophila clone 8 imaginal disc epithelial cells
- Reagents: long dsRNA against Drosophila genes
- Challenge: pathway stimulated by co-transfected Wingless expression plasmid
- Read-out: 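Dual luciferase reads per well after Wingless plasmid stimulation: reporter firefly light and Renilla control light; activity is firefly divided by Renilla, a ratio not deposited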
- Direction: firefly reporter light: higher = more Wg reporter light, before normalisation; Renilla control light: higher = more transfected or surviving cells
- Rule for the call: 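a knock-down is a candidate when at least two out of four statistical tests show it departing from its plate mean; one test alone signals a weak candidate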
- Meaning of the calls: active = candidate regulator (raises or lowers reporter); inactive = not a candidate
The deposit covers about 22,000 reagents; this is an unselected part of those with a known target gene and a result. Over the whole deposit, 233 (1.1%) got an active call. 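Light values are raw, unnormalised plate reads; the ratio scores behind the reporter calls were not deposited.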 A number with no mark means an inactive call. A plus sign joins genes that one reagent is predicted to hit. Not given: the amount of reagent, the time to read-out, the dose of the treatment.

target gene | DRSC id | reporter change call, replicate 1 | firefly reporter light, replicate 1 | firefly reporter light, replicate 2 | Renilla control light, replicate 1 | Renilla control light, replicate 2
CG9498 (GeneID 33885) | DRSC03235 | – | 2343 | 6997 | 248 | 2337
CG6497 (GeneID 39924) | DRSC10654 | – | 11367 | – | 4155 | –
CG6497 (GeneID 39924) | DRSC21469 | – | 9.41e5 | 9.76e5 | 5.61e5 | 4.96e5
mthl13 (GeneID 246395) | DRSC05238 | – | 15779 | – | 13280 | –
CG7781 (GeneID 34143) | DRSC03068 | – | 3232 | 7811 | 1416 | 2893
smal (GeneID 5740323) | DRSC02318 | – | 4321 | 10054 | 1188 | 3226
smal (GeneID 5740323) | DRSC02319 | – | 2869 | 6821 | 675 | 2179
smal (GeneID 5740323) | DRSC02320 | – | 2685 | 6683 | 705 | 2727
smal (GeneID 5740323) | DRSC02504 | – | 3249 | 6928 | 801 | 2413
smal (GeneID 5740323) | DRSC22866 | – | 6.27e5 | 6.88e5 | 2.41e5 | 3.02e5
CG17029 (GeneID 39740) | DRSC10240 | – | 5828 | – | 3009 | –
iotaTry (GeneID 36223) | DRSC07634 | – | 6258 | – | 2278 | –
CR17567 (retired record) (GeneID 14462800) | DRSC02627 | – | 4424 | 12617 | 1052 | 3987
CR17567 (retired record) (GeneID 14462800) | DRSC22537 | – | 5.12e5 | 4.75e5 | 1.35e5 | 1.20e5
Nplp3 (GeneID 59235) | DRSC09944 | – | 7408 | – | 3609 | –
CG15514 (GeneID 43531) | DRSC15053 | – | 2508 | 8535 | 972 | 2996
CG9467 (GeneID 41207) | DRSC16498 | – | 7593 | – | 2592 | –
Cyp6t3 (GeneID 36318) | DRSC07388 | – | 5559 | – | 2076 | –
jvl (GeneID 41788) | DRSC13053 | – | 3913 | – | 1090 | –
jvl (GeneID 41788) | DRSC15495 | – | 10898 | – | 3109 | –
TotZ (GeneID 117459) | DRSC13450 | – | 3113 | – | 1500 | –
CG14667 (GeneID 40643) | DRSC12253 | – | 14653 | – | 4144 | –
CG13193 (GeneID 36256) | DRSC06318 | – | 6629 | – | 2618 | –
ND-B18 (GeneID 32434) | DRSC19947 | – | 22134 | – | 9172 | –
CG34353 (GeneID 5740590) | DRSC14493 | – | 9446 | – | 4436 | –
CG34353 (GeneID 5740590) | DRSC14517 | – | 11366 | – | 3666 | –
CG34353 (GeneID 5740590) | DRSC14563 | – | 10547 | – | 3619 | –
CG34353 (GeneID 5740590) | DRSC15837 | – | 8752 | – | 3234 | –
CG34353 (GeneID 5740590) | DRSC22429 | – | 4.86e5 | 5.65e5 | 2.35e5 | 88725
CG6707 (GeneID 39168) | DRSC10697 | – | 9618 | – | 6087 | –
CG3062 (GeneID 31396) | DRSC18572 | – | 21170 | – | 9429 | –
CG43439 + CG32388 | DRSC08861 | – | 3146 | – | 1280 | –
fzy (GeneID 34968) | DRSC03534 | – | 2656 | 3136 | 594 | 880
CG31769 (GeneID 318934) | DRSC01361 | – | 21090 | – | 11947 | –
kn (GeneID 45318) | DRSC05505 | – | 21504 | – | 17971 | –
kn (GeneID 45318) | DRSC05507 | – | 19789 | – | 15677 | –
kn (GeneID 45318) | DRSC06196 | – | 5842 | – | 2071 | –
kn (GeneID 45318) | DRSC07637 | – | 6928 | – | 2769 | –
kn (GeneID 45318) | DRSC21533 | – | 7.37e5 | 6.87e5 | 3.11e5 | 2.97e5
CG6592 (GeneID 38687) | DRSC10669 | – | 1089 | 8336 | 664 | 2792
ppk21 (GeneID 43485) | DRSC14466 | – | 5170 | – | 2569 | –
CG18476 (GeneID 41404) | DRSC15281 | – | 5200 | – | 1674 | –
CG14607 (GeneID 40869) | DRSC12551 | – | 17443 | – | 4672 | –
CG8292 (GeneID 34125) | DRSC03082 | – | 3520 | 7483 | 930 | 2651
Fnta (GeneID 33682) | DRSC00557 | – | 6944 | – | 3488 | –
Polr2G (GeneID 261631) | DRSC16068 | – | 10955 | – | 1805 | –
kraken (GeneID 33265) | DRSC00824 | – | 3783 | 11298 | 1077 | 3309
CG5122 (GeneID 34703) | DRSC02816 | – | 2032 | 6601 | 1345 | 2813
Cyp313a5 (GeneID 41486) | DRSC16628 | – | 20432 | – | 5466 | –
Sr-CI (GeneID 33621) | DRSC00790 | – | 5459 | – | 1312 | –
fs(1)Ya (GeneID 31263) | DRSC18776 | – | 2637 | 5796 | 884 | 1788
Pxt (GeneID 42131) | DRSC17040 | – | 13836 | – | 2240 | –
CG6567 + CG4565 | DRSC15599 | – | 13507 | – | 3581 | –
HLH4C (GeneID 31397) | DRSC18670 | – | 28824 | – | 18259 | –
HLH4C (GeneID 31397) | DRSC21322 | – | 8.21e5 | 8.77e5 | 5.14e5 | 4.09e5
fs(2)ltoPP43 (GeneID 49505) | DRSC02067 | – | 2850 | 5572 | 480 | 2100
mei-P26 (GeneID 45775) | DRSC17735 | Wg reporter activity raised (active) | 5100 | 8405 | 131 | 369
Dlip1 (GeneID 53580) | DRSC18460 | – | 26199 | – | 18506 | –
CG7024 (GeneID 31407) | DRSC18414 | – | 18858 | – | 7658 | –
Sodh1 (GeneID 40836) | DRSC12605 | – | 7269 | – | 2685 | –
Gba1a (GeneID 42796) | DRSC21494 | – | 4.92e5 | 4.62e5 | 2.08e5 | 1.84e5
CG34447 (GeneID 5740813) | DRSC00741 | – | 2647 | 5905 | 1440 | 2896
MAGE (GeneID 40860) | DRSC12504 | – | 13735 | – | 3207 | –
brm (GeneID 39744) | DRSC11330 | – | 11120 | – | 2000 | –
CG7841 (GeneID 39672) | DRSC10922 | – | 5565 | – | 2459 | –
Syx16 (GeneID 33034) | DRSC20507 | – | 1685 | 5427 | 1024 | 2032
CG11436 (GeneID 31386) | DRSC17783 | – | 2467 | 5440 | 1195 | 1824
CG3502 (GeneID 37695) | DRSC04381 | – | 10425 | – | 2248 | –
mth (GeneID 38058) | DRSC08725 | – | 19004 | – | 5280 | –
mRpL55 (GeneID 42290) | DRSC14764 | – | 15733 | – | 2912 | –
CG31643 (GeneID 318867) | DRSC00906 | – | 14533 | – | 7549 | –
lili (GeneID 42956) | DRSC14143 | – | 2448 | 5760 | 1127 | 1864
Trs23 (GeneID 34197) | DRSC03190 | – | 2485 | 4887 | 925 | 2810
